# “Also recorded” adds a separate entry of the source.
# Assay: Quinone detection by mass spectrometry in mouse tissues and feces
# Conditions: for detection in mitochondria isolated from mouse tissues / detection in feces, stool and cecum: endogenous; for detection in mitochondria isolated from mouse tissues: mass spectrometry; for detection in feces, stool and cecum: mouse
Molecule,detection in mitochondria isolated from mouse tissues,"detection in feces, stool and cecum",level in kidney mitochondria (germ-free mice),level in kidney mitochondria (wild-type mice)
"COC1=C(OC)C(=O)C(C/C=C(\C)CC/C=C(\C)CC/C=C(\C)CC/C=C(\C)CC/C=C(\C)CC/C=C(\C)CC/C=C(\C)CC/C=C(\C)CCC=C(C)C)=C(C)C1=O [Ubiquinone-9, ubiquinone-9]",detected in all mouse tissues,–,–,–
rhodoquinone,"detected in kidney, liver, and brain; also recorded: detected at high levels in many tissues",detected in the stool and cecum,–,–
rhodoquinone-9,"only detected in abundance in mouse kidney, liver, duodenum, jejunum, and colon",in mouse feces,substantially depleted,detected
